The values below come from the supplement of paper PMC12819154, “High-throughput peptide-centric local stability assay extends protein–ligand identification to membrane proteins, tissues and bacteria” (Nature Structural & Molecular Biology, 2025).

Protein sequences, listed by entry. Tags and fused reporters are not part of them. Lines headed by an entry give the natural chain unless they say otherwise; changes in a name come on top.
UniProt H3BRN8: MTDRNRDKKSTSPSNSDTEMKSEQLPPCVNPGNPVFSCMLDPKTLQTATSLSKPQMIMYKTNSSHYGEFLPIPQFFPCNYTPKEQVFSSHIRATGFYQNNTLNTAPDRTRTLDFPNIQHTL
UniProt O00244: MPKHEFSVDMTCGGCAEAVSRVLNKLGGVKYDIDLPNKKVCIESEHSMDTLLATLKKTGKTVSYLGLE
UniProt O14810: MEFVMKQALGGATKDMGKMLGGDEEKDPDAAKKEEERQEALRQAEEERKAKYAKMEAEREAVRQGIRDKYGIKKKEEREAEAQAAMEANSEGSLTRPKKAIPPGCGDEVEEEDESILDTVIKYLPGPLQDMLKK
UniProt O15527, whole entry: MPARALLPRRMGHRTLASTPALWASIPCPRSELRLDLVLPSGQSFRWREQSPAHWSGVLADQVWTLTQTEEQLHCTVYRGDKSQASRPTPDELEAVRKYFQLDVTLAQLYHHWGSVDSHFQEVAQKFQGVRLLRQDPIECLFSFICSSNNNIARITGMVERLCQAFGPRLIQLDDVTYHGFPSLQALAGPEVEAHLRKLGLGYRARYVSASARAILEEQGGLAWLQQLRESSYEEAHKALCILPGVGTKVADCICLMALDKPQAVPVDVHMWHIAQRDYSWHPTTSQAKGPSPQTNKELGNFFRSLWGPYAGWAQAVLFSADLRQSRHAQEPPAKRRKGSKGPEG
UniProt O14503, whole entry: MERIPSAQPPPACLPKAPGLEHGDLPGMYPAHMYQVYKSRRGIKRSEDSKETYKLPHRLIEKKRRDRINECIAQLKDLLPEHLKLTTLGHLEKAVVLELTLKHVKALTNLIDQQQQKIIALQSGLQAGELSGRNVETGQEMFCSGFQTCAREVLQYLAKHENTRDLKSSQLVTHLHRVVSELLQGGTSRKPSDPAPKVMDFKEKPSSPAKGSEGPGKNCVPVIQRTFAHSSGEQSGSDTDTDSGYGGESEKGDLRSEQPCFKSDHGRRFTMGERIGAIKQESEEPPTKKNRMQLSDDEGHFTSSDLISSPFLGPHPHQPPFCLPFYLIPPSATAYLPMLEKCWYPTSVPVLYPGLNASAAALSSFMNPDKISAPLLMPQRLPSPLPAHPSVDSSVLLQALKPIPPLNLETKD
UniProt O00268, whole entry: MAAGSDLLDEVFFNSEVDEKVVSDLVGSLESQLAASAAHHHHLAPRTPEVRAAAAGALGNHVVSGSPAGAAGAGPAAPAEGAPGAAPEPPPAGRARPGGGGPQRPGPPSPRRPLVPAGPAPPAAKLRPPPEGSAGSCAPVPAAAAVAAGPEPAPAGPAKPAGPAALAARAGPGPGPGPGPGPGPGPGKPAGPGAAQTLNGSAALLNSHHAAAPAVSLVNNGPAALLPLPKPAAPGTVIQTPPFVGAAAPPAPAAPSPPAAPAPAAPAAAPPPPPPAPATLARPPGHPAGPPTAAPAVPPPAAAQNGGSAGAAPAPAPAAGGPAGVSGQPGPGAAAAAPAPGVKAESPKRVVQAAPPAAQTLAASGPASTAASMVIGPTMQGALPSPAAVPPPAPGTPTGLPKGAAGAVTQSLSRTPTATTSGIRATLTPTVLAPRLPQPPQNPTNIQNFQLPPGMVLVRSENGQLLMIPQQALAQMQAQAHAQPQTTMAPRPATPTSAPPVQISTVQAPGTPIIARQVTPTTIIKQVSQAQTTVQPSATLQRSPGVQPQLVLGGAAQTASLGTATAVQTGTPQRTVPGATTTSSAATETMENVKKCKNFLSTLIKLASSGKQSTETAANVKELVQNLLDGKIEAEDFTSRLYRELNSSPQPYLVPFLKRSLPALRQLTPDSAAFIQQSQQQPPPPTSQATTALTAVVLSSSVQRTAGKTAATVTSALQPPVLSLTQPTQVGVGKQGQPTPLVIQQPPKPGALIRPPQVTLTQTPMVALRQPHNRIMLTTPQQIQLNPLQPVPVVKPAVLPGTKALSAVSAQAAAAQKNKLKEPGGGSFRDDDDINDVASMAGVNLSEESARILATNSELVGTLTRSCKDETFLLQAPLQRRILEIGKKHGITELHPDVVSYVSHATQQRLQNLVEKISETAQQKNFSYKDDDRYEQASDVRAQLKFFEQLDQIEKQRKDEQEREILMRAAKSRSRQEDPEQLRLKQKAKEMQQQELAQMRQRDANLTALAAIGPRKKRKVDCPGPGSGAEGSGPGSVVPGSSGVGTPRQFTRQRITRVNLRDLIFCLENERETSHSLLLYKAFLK
UniProt O14893: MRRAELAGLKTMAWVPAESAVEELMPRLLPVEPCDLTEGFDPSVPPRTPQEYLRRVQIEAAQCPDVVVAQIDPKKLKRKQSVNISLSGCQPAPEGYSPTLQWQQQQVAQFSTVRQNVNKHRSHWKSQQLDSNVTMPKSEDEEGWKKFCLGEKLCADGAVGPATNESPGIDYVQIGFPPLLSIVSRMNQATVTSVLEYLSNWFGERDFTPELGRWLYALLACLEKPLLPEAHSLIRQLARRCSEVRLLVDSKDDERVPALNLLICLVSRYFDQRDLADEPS
UniProt B7Z6K7: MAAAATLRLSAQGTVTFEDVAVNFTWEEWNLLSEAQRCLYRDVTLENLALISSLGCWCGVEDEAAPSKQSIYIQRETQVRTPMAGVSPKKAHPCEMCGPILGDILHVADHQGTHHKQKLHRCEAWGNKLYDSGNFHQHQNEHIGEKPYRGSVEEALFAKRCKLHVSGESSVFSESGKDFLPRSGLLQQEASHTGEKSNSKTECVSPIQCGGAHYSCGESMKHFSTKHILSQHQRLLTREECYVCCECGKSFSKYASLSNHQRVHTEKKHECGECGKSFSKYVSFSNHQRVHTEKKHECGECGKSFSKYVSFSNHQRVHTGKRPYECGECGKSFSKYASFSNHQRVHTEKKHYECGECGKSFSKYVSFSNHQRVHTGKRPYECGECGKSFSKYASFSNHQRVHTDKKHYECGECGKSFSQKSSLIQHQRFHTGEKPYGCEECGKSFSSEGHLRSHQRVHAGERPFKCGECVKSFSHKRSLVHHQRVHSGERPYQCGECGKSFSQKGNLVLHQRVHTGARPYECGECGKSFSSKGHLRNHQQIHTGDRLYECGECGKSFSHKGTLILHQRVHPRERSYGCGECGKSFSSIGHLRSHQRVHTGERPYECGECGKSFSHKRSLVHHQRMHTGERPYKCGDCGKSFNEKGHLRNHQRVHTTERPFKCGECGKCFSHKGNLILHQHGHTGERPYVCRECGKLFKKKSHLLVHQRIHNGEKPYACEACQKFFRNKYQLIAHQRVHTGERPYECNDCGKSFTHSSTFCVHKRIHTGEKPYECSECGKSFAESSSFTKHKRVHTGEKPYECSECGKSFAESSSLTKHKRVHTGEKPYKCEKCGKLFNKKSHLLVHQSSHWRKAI
UniProt A8MYV0: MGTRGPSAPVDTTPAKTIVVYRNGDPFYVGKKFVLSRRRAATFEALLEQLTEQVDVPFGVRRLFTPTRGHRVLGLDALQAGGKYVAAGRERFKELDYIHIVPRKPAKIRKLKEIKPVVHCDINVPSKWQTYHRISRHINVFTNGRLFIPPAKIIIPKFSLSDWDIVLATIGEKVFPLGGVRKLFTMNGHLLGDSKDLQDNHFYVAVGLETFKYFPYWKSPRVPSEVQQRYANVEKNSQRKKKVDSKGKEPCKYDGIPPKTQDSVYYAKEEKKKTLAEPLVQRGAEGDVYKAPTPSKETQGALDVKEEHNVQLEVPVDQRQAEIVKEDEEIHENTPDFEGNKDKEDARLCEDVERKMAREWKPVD
UniProt O14948: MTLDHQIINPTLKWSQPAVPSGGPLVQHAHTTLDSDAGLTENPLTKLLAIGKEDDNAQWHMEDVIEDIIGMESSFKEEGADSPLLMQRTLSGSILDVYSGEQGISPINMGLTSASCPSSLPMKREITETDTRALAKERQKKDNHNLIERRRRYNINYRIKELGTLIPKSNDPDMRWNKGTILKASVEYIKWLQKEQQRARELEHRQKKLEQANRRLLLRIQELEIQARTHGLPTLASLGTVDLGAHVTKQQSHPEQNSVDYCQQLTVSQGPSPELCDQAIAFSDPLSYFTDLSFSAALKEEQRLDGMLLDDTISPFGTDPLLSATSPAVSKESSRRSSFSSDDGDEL
UniProt O00461: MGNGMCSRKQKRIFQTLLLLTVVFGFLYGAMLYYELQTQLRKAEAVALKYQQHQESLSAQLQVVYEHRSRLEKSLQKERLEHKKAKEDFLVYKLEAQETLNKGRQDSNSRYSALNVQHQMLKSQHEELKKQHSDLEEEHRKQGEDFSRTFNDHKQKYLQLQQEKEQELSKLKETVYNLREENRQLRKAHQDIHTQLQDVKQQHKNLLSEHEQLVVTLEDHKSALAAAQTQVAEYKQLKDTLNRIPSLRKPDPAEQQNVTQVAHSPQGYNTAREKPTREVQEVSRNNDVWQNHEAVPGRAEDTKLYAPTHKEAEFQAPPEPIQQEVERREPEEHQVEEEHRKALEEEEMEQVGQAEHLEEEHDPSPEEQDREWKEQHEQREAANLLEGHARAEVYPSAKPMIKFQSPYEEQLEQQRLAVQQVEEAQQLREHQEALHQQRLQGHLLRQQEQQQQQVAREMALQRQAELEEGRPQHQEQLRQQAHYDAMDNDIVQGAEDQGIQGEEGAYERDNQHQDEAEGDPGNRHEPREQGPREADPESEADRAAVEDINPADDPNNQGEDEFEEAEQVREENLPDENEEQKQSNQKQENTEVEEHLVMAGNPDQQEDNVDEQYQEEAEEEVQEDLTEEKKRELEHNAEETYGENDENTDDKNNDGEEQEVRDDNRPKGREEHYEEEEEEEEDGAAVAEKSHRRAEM
UniProt O00425, whole entry: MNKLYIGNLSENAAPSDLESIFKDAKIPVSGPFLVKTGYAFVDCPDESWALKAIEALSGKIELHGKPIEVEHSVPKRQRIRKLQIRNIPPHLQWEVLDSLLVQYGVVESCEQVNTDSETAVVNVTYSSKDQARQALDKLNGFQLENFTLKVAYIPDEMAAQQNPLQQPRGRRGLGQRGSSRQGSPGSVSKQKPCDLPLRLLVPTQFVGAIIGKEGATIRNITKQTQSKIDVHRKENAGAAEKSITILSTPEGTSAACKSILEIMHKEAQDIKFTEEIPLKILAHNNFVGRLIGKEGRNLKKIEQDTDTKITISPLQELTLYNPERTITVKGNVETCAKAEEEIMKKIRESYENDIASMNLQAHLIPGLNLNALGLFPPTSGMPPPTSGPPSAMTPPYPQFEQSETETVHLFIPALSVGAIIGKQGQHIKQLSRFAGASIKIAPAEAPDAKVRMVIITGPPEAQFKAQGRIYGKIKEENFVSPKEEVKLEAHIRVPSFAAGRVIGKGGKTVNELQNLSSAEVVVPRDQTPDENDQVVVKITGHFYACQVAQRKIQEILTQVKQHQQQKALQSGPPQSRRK
UniProt O14763, whole entry: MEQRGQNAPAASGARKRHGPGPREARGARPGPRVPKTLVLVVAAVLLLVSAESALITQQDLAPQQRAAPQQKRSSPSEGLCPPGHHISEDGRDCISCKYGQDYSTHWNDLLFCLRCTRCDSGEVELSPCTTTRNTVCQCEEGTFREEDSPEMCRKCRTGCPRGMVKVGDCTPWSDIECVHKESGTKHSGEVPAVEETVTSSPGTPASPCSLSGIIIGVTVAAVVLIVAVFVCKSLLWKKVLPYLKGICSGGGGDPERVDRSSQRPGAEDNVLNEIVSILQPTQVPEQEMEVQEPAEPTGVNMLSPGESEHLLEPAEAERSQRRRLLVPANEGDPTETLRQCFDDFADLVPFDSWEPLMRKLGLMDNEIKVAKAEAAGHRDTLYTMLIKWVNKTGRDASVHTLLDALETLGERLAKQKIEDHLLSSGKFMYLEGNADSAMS
UniProt O00635: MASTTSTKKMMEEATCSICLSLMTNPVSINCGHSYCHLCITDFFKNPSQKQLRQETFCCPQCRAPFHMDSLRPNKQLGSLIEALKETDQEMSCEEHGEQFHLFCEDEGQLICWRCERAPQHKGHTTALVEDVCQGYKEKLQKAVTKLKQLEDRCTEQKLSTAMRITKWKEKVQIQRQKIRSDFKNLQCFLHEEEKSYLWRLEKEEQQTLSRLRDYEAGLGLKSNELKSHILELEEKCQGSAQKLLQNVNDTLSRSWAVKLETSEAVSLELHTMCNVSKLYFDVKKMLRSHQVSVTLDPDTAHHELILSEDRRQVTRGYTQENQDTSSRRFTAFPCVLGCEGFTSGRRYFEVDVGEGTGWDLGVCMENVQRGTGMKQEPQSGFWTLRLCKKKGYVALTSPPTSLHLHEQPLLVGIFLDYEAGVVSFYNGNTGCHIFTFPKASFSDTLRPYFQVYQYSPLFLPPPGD
UniProt O00488: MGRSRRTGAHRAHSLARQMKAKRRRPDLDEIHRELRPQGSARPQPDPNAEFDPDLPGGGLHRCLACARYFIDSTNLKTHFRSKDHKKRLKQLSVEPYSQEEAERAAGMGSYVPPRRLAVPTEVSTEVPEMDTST
UniProt A8MWD9, whole entry: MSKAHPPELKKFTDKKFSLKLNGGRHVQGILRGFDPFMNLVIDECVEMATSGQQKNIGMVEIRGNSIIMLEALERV
UniProt O00193: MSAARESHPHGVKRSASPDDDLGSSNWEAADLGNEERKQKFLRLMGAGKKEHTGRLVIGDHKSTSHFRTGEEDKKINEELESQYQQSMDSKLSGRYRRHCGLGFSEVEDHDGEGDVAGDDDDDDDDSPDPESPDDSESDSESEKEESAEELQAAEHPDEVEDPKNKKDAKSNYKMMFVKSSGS

The other results are listed elsewhere or left out. Most values lie at the level of the controls, where differences are scatter.

Compound in the assay: Cc1nc(Nc2ncc(C(=O)Nc3c(C)cccc3Cl)s2)cc(N2CCN(CCO)CC2)n1 [dasatinib]
Kind of assay: log2 fold change of tryptic peptide abundance, ligand vs vehicle (limited proteolysis) (log2 ratio); higher = more trypsin-susceptible (destabilized). The conditions noted are these: ligand concentration: 5 uM; sample: K562 cleared lysate.
On to “UniProt H3BRN8 (peptide sequence: STSPSNSDTEMK, peptide start residue: 10)”, for which the log2 fold change worked out at 0.227. Then “ATOX1 (peptide sequence: YDIDLPNK, peptide start residue: 31) (UniProt O00244)”, with 0.334; and “ANKRD28 (peptide sequence: AIHWAAYMGHIEVVK, peptide start residue: 176) (UniProt O15084)”, with -0.49. Then “STXBP3 (peptide sequence: IENESDMIR, peptide start residue: 432) (UniProt O00186)”, with 0.273; and “MPHOSPH10 (peptide sequence: ATGRPECFLTIQEGLASK, peptide start residue: 21) (UniProt O00566)”, with -0.724. As to “CPLX1 (peptide sequence: YLPGPLQDMLKK, peptide start residue: 123) (UniProt O14810)”, the log2 fold change is -0.158.

In the case of “ARPC3 (peptide sequence: QEDEVMR, peptide start residue: 124) (UniProt O15145)”, the log2 fold change stood at 0.444.

Consider “CBX4 (peptide sequence: PKPLVVQVPTFAR, peptide start residue: 76) (UniProt O00257)”, for which the log2 fold change is -0.84. On to “OGG1 (peptide sequence: ESSYEEAHK, peptide start residue: 230) (UniProt O15527)”, for which the log2 fold change was -0.0776. Then “UniProt C9JN71 (peptide sequence: AFFSPSSLKR, peptide start residue: 235)”, with -0.286; and “BHLHE40 (peptide sequence: INECIAQLK, peptide start residue: 68) (UniProt O14503)”, with -0.439; and “UniProt O00481 (peptide sequence: HYWEVEVGDR, peptide start residue: 342)”, with -0.042. Then “TAF4 (peptide sequence: FFEQLDQIEK, peptide start residue: 946) (UniProt O00268)”, with 0.101; and “UniProt O14757 (peptide sequence: MCGTLPYVAPELLKR, peptide start residue: 167)”, with -0.584. In the case of “GEMIN2 (peptide sequence: SEDEEGWK, peptide start residue: 138) (UniProt O14893)”, the log2 fold change was -0.27. Take “UniProt B7Z6K7 (peptide sequence: GSVEEALFAKR, peptide start residue: 149)”: the log2 fold change is 0.673.

For “PHYH (peptide sequence: NLVPDADIQR, peptide start residue: 71) (UniProt O14832)”, the log2 fold change is 0.045. “DCTN6 (peptide sequence: ILPNYHHLKK, peptide start residue: 170) (UniProt O00399)”: the log2 fold change was -0.0545.

For “ARPC1B (peptide sequence: NAYVWTLK, peptide start residue: 75) (UniProt O15143)”, the log2 fold change is -0.34. Then “UniProt A8MYV0 (peptide sequence: KMAREWK, peptide start residue: 355)”, with -0.0154; and “NDUFAB1 (peptide sequence: LMCPQEIVDYIADKK, peptide start residue: 138) (UniProt O14561)”, with 0.675.

For the target “UniProt O15054 (peptide sequence: LGPSAHSSR, peptide start residue: 438)”, the log2 fold change was -0.58.

Consider “CDC42EP2 (peptide sequence: ELPDGPSPLLK, peptide start residue: 95) (UniProt O14613)”, for which the log2 fold change is -0.368. Then “UniProt O14948 (peptide sequence: IKELGTLIPK, peptide start residue: 331)”, with 0.247; and “CDK2AP1 (peptide sequence: EIRPTYAGSK, peptide start residue: 87) (UniProt O14519)”, with 0.0273.

Take “UniProt A9YTQ3 (peptide sequence: ASGVTGR, peptide start residue: 388)”: the log2 fold change was found to be 0.933. Then “GOLIM4 (peptide sequence: EHQEALHQQR, peptide start residue: 429) (UniProt O00461)”, with 0.57; and “IGF2BP3 (peptide sequence: IAPAEAPDAK, peptide start residue: 441) (UniProt O00425)”, with 0.147. Then “TNFRSF10B (peptide sequence: QKIEDHLLSSGK, peptide start residue: 416) (UniProt O14763)”, with 0.316; and “UniProt E7ETH6 (peptide sequence: TECVSPFQCGGAHYSHGDSMK, peptide start residue: 201)”, with -0.203. Then “ARVCF (peptide sequence: NLSYHVHKEVPGADR, peptide start residue: 577) (UniProt O00192)”, with 0.452; and “TRIM38 (peptide sequence: APFHMDSLRPNK, peptide start residue: 64) (UniProt O00635)”, with 0.17; and “ZNF593 (peptide sequence: AAGMGSYVPPR, peptide start residue: 105) (UniProt O00488)”, with 0.455. For the target “SNRPGP15 (peptide sequence: AHPPELKK, peptide start residue: 4) (UniProt A8MWD9)”, the log2 fold change is -0.0503. Then “HMGN4 (peptide sequence: VKDEPQRR, peptide start residue: 17) (UniProt O00479)”, with -0.0944; and “UniProt O00193 (peptide sequence: ESHPHGVK, peptide start residue: 6)”, with -0.13. Then “HGS (peptide sequence: ESDAMFAAER, peptide start residue: 147) (UniProt O14964)”, with 0.12.
